In paper PMC12305709, “Functional investigation of the RNA helicase MOV10 with respect to its interplay with factors involved in nonsense-mediated mRNA decay” (The Journal of Biological Chemistry, 2025):

System: T1, UPF1 (Homo sapiens)
T1 sequence (looked up, limits assumed): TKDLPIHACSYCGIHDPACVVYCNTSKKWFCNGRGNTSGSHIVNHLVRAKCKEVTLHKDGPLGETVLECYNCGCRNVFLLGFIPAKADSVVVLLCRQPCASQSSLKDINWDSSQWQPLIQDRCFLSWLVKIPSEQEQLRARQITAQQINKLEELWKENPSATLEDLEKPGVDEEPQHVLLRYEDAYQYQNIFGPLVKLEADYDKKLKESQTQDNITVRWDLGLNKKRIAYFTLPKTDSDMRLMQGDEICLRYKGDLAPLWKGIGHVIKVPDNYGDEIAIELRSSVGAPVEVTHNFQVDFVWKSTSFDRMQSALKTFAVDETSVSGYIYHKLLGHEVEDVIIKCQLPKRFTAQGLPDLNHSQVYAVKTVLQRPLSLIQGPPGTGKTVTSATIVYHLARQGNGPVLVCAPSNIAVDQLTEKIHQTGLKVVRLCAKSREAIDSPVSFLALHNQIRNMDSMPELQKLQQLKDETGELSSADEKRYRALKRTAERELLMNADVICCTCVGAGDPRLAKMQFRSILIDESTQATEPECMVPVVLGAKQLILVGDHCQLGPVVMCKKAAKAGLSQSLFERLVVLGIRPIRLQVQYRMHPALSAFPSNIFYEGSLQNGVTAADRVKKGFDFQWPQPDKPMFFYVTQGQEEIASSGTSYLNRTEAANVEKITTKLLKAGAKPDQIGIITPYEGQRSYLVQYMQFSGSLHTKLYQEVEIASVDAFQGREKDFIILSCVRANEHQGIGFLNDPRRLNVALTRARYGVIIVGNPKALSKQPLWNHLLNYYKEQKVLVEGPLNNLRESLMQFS
Assay: fluorescence anisotropy
Conditions: 1 mM ATPgS, decreased affinity, Kd only in figure; 20 mM Hepes pH 7.5, 100 mM NaCl, 1 mM MgCl2, 100 ug/ml BSA; 5 nM RNA; 30 min room temperature, read at 25 C; recombinant protein; label: 5' 6-FAM

UUUUUUUUUUUU [U12 RNA]: binds more weakly.

Construct, isoform or probe ends are uncertain for at least one entry. The comparison behind a weaker result is the experiment's own reference, which may not be listed here. Protein sequences can lack the tags named with them.
